Test results as given in publication PMC5902613.
Results are given in words; binding and its absence hold for the method and conditions named. Binding seen in cells or lysates may run through a third protein. Some entries that bind do so weakly or less than the wild type.

Protein sequences, listed by entry. Tags and fused reporters are not part of them.
UniProt P31269: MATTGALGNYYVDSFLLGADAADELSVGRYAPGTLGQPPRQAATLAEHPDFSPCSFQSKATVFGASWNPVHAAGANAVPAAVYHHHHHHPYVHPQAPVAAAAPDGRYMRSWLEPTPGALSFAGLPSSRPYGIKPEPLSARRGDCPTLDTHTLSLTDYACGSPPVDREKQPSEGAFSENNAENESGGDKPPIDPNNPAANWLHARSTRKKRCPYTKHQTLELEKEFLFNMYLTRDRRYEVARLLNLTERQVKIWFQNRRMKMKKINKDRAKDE

Key:
[1] = target: HOXA9, overexpressed from the HOXA9 expressing construct (Addgene) (UniProt P31269); experiment: co-IP; Pierce crosslinking magnetic IP/Co-IP kit; 5 ug antibody cross-linked with DSS to protein A/G magnetic beads; cleared cell lysate in IP Lysis/Wash buffer, 1 h incubation; irrelevant IgG as control; western blot detection; with or without HOXA9 overexpression
[2] = target: Homeobox A9 (HOXA9) (human (endogenous in the paper's human cell lines)) (UniProt P31269); experiment: as above

B1: CRIP2 (protein, UniProt P52943 1-208)
chain: MASKCPKCDKTVYFAEKVSSLGKDWHKFCLKCERCSKTLTPGGHAEHDGKPFCHKPCYATLFGPKGVNIGGAGSYIYEKPLAEGPQVTGPIEVPAARAEERKASGPPKGPSRASSVTTFTGEPNTCPRCSKKVYFAEKVTSLGKDWHRPCLRCERCGKTLTPGGHAEHDGQPYCHKPCYGILFGPKGVNTGAVGSYIYDRDPEGKVQP
- binding [1]: binds
- binding [2]: binds
